{"source": "patent US7855309B2", "about": "“Pesticide benzyloxy- and phenetyl-substituted phenyl-amidine derivatives” (Bayer CropScience AG, priority 2005, dated 2010)", "key": {"[1]": {"system": "Puccinia recondita f. Sp. tritici", "experiment": "In vivo preventive test on Puccinia recondita f. sp. tritici (wheat brown rust)", "settings": "1000 ppm of active ingredient, evaluated 10 days after inoculation"}, "[2]": {"system": "Erysiphe graminis f.sp. hordei", "experiment": "In vivo preventive test on Erysiphe graminis (powdery mildew on barley)", "settings": "1000 ppm of active ingredient, evaluated 7 days after inoculation"}, "[3]": {"system": "Podosphaera leucotricha", "experiment": "In vivo protective test on Podosphaera leucotricha (apples)", "settings": "100 ppm of active ingredient, evaluated 10 days after inoculation"}, "[4]": {"system": "Sphaerotheca fuliginea", "experiment": "In vivo protective test on Sphaerotheca fuliginea (cucumbers)", "settings": "100 ppm of active ingredient, evaluated 7 days after inoculation"}}, "note": "Some of these results come from one statement about several compounds together."}
{"compound": "CCN(C)/C=N/c1cc(C)c(OCc2cccc(C(F)(F)F)c2)cc1C", "note": "[Compound 9, N′-(2,5-dimethyl-4-{[3-(trifluoromethyl)benzyl]oxy}phenyl)-N-ethyl-N-methylimidoformamide]", "values": [{"measurement": "efficacy", "setting": "[1]", "result": "≥ 70", "unit": "%"}, {"measurement": "efficacy", "setting": "[2]", "result": "≥ 70", "unit": "%"}]}
{"compound": "CCN(C)/C=N/c1cc(C)c(CCc2ccccc2F)cc1C", "note": "[Compound 44, N-ethyl-N′-{4-[2-(2-fluorophenyl)ethyl]-2,5-dimethylphenyl}-N-methylimidoformamide]", "values": [{"measurement": "efficacy", "setting": "[3]", "result": "≥ 70", "unit": "%"}, {"measurement": "efficacy", "setting": "[4]", "result": "≥ 70", "unit": "%"}]}
